Reference: PubChem BioAssay AID2685 (National Center for Advancing Translational Sciences (NCATS), 2010)
The other results are listed elsewhere or left out. These are further read-outs of the screen, such as a control signal, another cell line or another target. No call is given for them. Compounds called inactive in the main read-out are mostly missing here. Words in brackets tell the shape of the fitted curve; partial curves, single points and poor fits give uncertain potencies.

Experiment: qHTS Assay for Lipid Storage Modulators in Drosophila S3 Cells;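 as to cell number change: cells counted by Cell Tracker Red CMTPX staining in the red channel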
Conditions: BODIPY lipid droplet fluorescence, 18-24 h; for cell number change: measured here: cell count max response, cells fed with added oleic acid
Text: NIH Molecular Libraries Probe Production Centers Network [MLPCN] NIH Chemical Genomics Center [NCGC] MLPCN Grant: 1 R03 MH085686-01 Assay Submitter (PI): Beller, Mathias; Max-Planck-Institut fur Biophysikalische Chemie NCGC Assay Overview: Storing lipids as a reservoir for energy or the anabolism of elementary metabolites is a common feature of probably all cells and is conserved from bacteria to humans. The universal cellular lipid storage organelle is the so-called lipid storage droplet (LD). Although ubiquitous, LDs share a simple structure composed of a hydrophobic core that harbors the storage lipids, which is shielded by a droplet-specific phospholipid monolayer to which proteins are attached. The current model of LD biogenesis involves an incorporation of the lipid core into the membrane leaflets of the endoplasmic reticulum (ER) followed by a subsequent budding-like maturation of a LD, which ultimately pinches off. Once released, LD volume can increase by localized lipogenesis or fusion of existing droplet. Storage lipids are re-mobilized enzymatically by lipase activity. Lipase regulation in the adipocyte is heavily studied and involves multiple components including catecholamine signaling, the LD-associated proteins Perilipin and comparative gene identification (CGI-58) and at least two lipases named hormone sensitive lipase (HSL) and adipocyte triglyceride lipase (ATGL). LD regulation outside of the adipocyte is poorly understood and only few components are known. However, there is an urgent need to learn more about ectopic fat depots as mislocalized storage of lipids, for example in the liver or muscle, is an eminent health problem associated with insulin resistance or the metabolic syndrome. We developed a laser-scanning cytometer assay to enable 1,536-well screening and combined the results of the small molecules screen with an RNAi database based on lipid storage.
Triacsin C (Sigma-Aldrich T-4540), an inhibitor of long-chain fatty acyl CoA synthetase that blocks synthesis of triglycerides, was used as a positive control for lipid under-storage. A total of 23 nL of compound solution of different concentrations were transferred to the assay plates using a Kalypsys pin tool equipped with a 1,536-pin array containing 10-nL slotted pins (FP1S10, 0.457-mm diameter, 50.8 mm long; V&P Scientific). One microliter of oleic acid (400 uM) was added, and the plate was lidded with stainless steel rubber gasket lined lids containing pinholes. […] Fluorescence was detected by excitation of the fluorophores with a 488-nm laser on an Acumen Explorer (TTP Lab Tech). The total intensity in channel 2 (500-530 nm) reflected lipid droplet accumulation. Cells were detected using channel 3 (575-640 nm) with 5-um width and 100-um depth filters. The ratio of the number of objects in PMT channel 2 over the number of objects in PMT channel 3 was also calculated. Percent activity was computed relative to an internal control (100% inhibited lipid droplet deposition due to the presence of 20 uM Triacsin C), which was added to 32 wells/plate.

[1] = measured here: lipid fluorescence (Fed channel) AC50, cells fed with added oleic acid
[2] = measured here: cell number channel AC50, cells fed with added oleic acid

Compound | AC50 [1] | cell number change | AC50 [2]
O=C1c2ccccc2C(Nc2ccccc2)N1c1cccnc1 (centres undefined) | 6.51 µM [falling, single point] | – | –
Cc1nc2ccc(S(=O)(=O)NCC(=O)NCCc3ccc(Cl)cc3)cc2s1 | 29.1 µM [rising, single point] | 41.1% | 16.4 µM [rising, single point]
CN(C(=O)CSc1nnc(-c2c[nH]c3ccccc23)o1)C1CCS(=O)(=O)C1 (centres undefined) | – | -86.6% | 29.1 µM [falling, partial curve]
Cc1sc(NC(=O)C2CSC3(C)CCC(=O)N23)nc1-c1ccccc1 (centres undefined) | 29.1 µM [falling, single point] | -29.7% | 2.59 µM [falling, full curve, poor fit]
COc1ccc(-n2c(=O)c3ccccc3n(CC(=O)NC3CCCCC3)c2=O)cc1 | – | 64.6% | 9.2 µM [rising, partial curve]
COC(=O)c1ccccc1NC(=O)c1cc(-c2ccc(C)cc2)on1 | – | 2.65% | –
CCCC(=O)Nc1ccccc1N1CCN(C(=O)c2ccccc2)CC1 | 0.731 µM [rising, single point] | -5.64% | –
COc1cc(CCC(=O)OCC(=O)NC2CCCC(C)C2C)cc(OC)c1OC (centres undefined) | – | -33.1% | –
C=CC(=O)NCC1OCCc2ccccc21 (centres undefined) | 13 µM [rising, single point] | 9.03% | –
CCn1cnc2cc([N+](=O)[O-])ccc21 | – | 9.05% | –
Cc1ccc(OCCn2c3ccccc3n3nc(C)c(=O)nc23)cc1 | 0.461 µM [falling, partial curve, poor fit] | -5.1% | –
CN(CC(=O)O)S(=O)(=O)c1ccc2c(c1)n(C)c(=O)c(=O)n2C | – | 6.91% | –
CC1Oc2ccccc2N(Cc2ccccc2F)C1=O (centres undefined) | – | -11.6% | –
Clc1ccc(CCNc2ncnc3nc[nH]c23)cc1 | 16.4 µM [falling, single point] | -30.7% | 16.4 µM [falling, single point]
CCn1c(C)cc(C(=O)CN2C(=O)c3ccccc3S2(=O)=O)c1C | 4.11 µM [rising, single point] | 5.1% | –
CCOc1ccc(-c2c(C(=O)N/N=C/c3ccc(O)cc3)nnn2-c2nonc2N)cc1 | – | -5.02% | –
O=C(NC(=S)N1CCc2ccccc21)C1CCC1 | – | -2.44% | –
COc1ccc(N2CCCCn3c2nc2c3c(=O)[nH]c(=O)n2C)cc1 | 23.1 µM [rising, single point] | 22.3% | –
O=C(NC1CCSc2ccccc21)c1ccccc1Br (centres undefined) | 0.58 µM [rising, single point] | 26.5% | 1.84 µM [rising, full curve, poor fit]
Cc1ccc2c(CSc3nnc(C4CC4)n3N)cc(=O)oc2c1C | – | 8.5% | 0.00517 µM [rising, full curve, poor fit]
Cc1ccc(NC(=O)CNS(=O)(=O)c2ccc(F)cc2)cc1C | 29.1 µM [rising, single point] | 80.6% | 6.51 µM [falling, single point]

Entries of single compounds, quoted from the list.
O=C1c2ccccc2C(Nc2ccccc2)N1c1cccnc1 (centres undefined) is listed as AC50 [1]: 6.51 µM [falling, single point]
O=C(NC(=S)N1CCc2ccccc21)C1CCC1 is listed as cell number change: -2.44%

Next results:

Compound | AC50 [1] | cell number change | AC50 [2]
CCOC(=O)c1cc(C(=O)OCC)c2cc(Br)ccc2n1 | 3.66 µM [falling, single point] | -24.2% | –
N#Cc1c(NC(=O)C2CC(c3c(F)cccc3Cl)=NO2)sc2c1CCC2 (centres undefined) | 0.651 µM [rising, partial curve] | 5.78% | –
Cc1sc2ncn(CC(=O)N3CCC(C(N)=O)CC3)c(=O)c2c1S(=O)(=O)N1CCOCC1 | 9.2 µM [falling, partial curve, poor fit] | -3.85% | –
COc1cc2c(cc1OC)C(c1ccco1)CC(=O)N2 (centres undefined) | 0.231 µM [falling, full curve, poor fit] | – | –
Cc1cccc(/C=C2/SC(=O)N(Cc3ccccc3)C2=O)n1 | – | 66.8% | 8.2 µM [rising, partial curve]
CCn1c(SCCOc2ccc(OC)cc2)nnc1C(CO)NC(=O)c1ccc(OC)cc1 (centres undefined) | 16.4 µM [falling, single point] | 8.59% | –
Cn1ccnc1SCC(=O)c1ccc(C#N)cc1 | 29.1 µM [falling, single point] | 4.2% | –
O=C(Nc1ccc(S(=O)(=O)N2CCCC2)cc1)C1CCN(S(=O)(=O)c2ccc(F)cc2)CC1 | – | 10% | –
Cc1ccc(Cn2nnc3c(=O)[nH]c(C4CCCN(C(=O)Nc5ccc(F)cc5)C4)nc32)cc1 (centres undefined) | 20.6 µM [rising, single point] | -10.3% | –
CCC(Oc1ccccc1)C(=O)Nc1cc(C(F)(F)F)ccc1N1CCOCC1 (centres undefined) | – | 10.5% | –
Cc1ccc(CCNC(=O)C2CCCN(S(C)(=O)=O)C2)cc1 (centres undefined) | 0.00411 µM [falling, full curve, poor fit] | -10.6% | –
COc1ccc(N/C=C/C(=O)c2ccc3c(c2)OCO3)cc1OC | 0.184 µM [rising, full curve] | 34.5% | 2.06 µM [rising, partial curve]
CC(C)c1csc(CN2CCC(CO)(Cc3cccc(F)c3)CC2)n1 | 18.4 µM [falling, single point] | 2.31% | –
Cc1cccc(C(=O)OCC(=O)N2CCC(c3ccccc3)=N2)c1O | 1.16 µM [rising, full curve, poor fit] | 11.5% | –
COc1ccc(N(C(=O)c2cnccn2)C(C(=O)NC2CCCCC2)c2ccccc2)cc1 (centres undefined) | 6.51 µM [rising, partial curve, poor fit] | 0.435% | –
COc1cccc(NC(=O)NCCC2=CCCCC2)c1 | 0.103 µM [falling, full curve, poor fit] | -9.49% | 0.146 µM [falling, full curve, poor fit]
Cc1nc(SCC(=O)NCC2CCCO2)c2cc(-c3ccccc3)sc2n1 (centres undefined) | – | -43.2% | 16.4 µM [falling, single point]
Cc1c(C(=O)Nc2ccc(Cl)cc2)c2ccccn2c1C(=O)c1ccc([N+](=O)[O-])cc1 | 29.1 µM [falling, single point] | 22.9% | –
CCc1ccc2[nH]c(=O)c(C(c3nnnn3Cc3ccc(OC)cc3)N3CCOCC3)cc2c1 (centres undefined) | 0.206 µM [rising, partial curve, poor fit] | -5.17% | –
COc1ccccc1NS(=O)(=O)c1cc(NC(=O)c2ccc3ccccc3n2)ccc1Cl | 0.517 µM [rising, partial curve] | 5.25% | –
CC(C)(C)NC(=O)CSc1nnc(NC(=O)CCc2ccccc2)s1 | 14.6 µM [falling, partial curve, poor fit] | -6.74% | –

Compound | AC50 [1] | cell number change | AC50 [2]
Cc1ccc(S(=O)(=O)CCc2nc3ccccc3s2)cc1C | 6.51 µM [falling, single point] | – | –
CCOc1cc(NC(=O)Nc2ccc(F)cc2)c(OCC)cc1NC(=O)CC | 0.103 µM [rising, full curve, poor fit] | 13.5% | –
CCOc1cc(C(=O)Nc2cc(OC)cc(OC)c2)ccc1OCC(=O)N1CCOCC1 | – | 33% | –
Cc1onc(C(=O)Nc2ccccc2C(F)(F)F)c1[N+](=O)[O-] | 29.1 µM [falling, single point] | 20.8% | –
CCN(CC)c1ccc2cc(-c3nc4ccccc4n3C)c(=O)oc2c1 | 2.31 µM [falling, partial curve] | -32.9% | 2.31 µM [falling, partial curve]
Brc1ccc(CSc2ccc3nnc(-c4ccccn4)n3n2)cc1 | 14.6 µM [falling, single point] | -22.1% | –
Cc1cc(C(=O)COc2ccc(C#N)cc2)c(C)n1C1CC1 | 1.64 µM [rising, partial curve] | 59.6% | 16.4 µM [rising, partial curve]
Cc1c(C(=O)N2CCc3ccccc32)oc2ccccc12 | – | 12.7% | –
O=C(CSc1ncccn1)N1CCN(C(c2ccccc2)c2ccccc2)CC1 | – | -9.28% | 0.461 µM [rising, single point]
Cc1ccccc1-n1c(SCC(=O)N/N=C/c2sccc2C)nc2ccccc2c1=O | – | -31.9% | 29.1 µM [falling, single point]
CCOC(=O)c1ccc(N2C(=O)CC(Sc3nc(O)c(CC)c(=O)[nH]3)C2=O)cc1 (centres undefined) | – | 3.7% | –
CS(=O)(=O)N1N=C(c2ccccc2)CC1c1ccc2c(c1)OCO2 (centres undefined) | 20.6 µM [falling, partial curve] | -11.1% | –
COc1cc([N+](=O)[O-])cc(/C=C2/SC(=S)N(Cc3ccccc3)C2=O)c1O | 1.84 µM [falling, partial curve] | -77.8% | 2.91 µM [falling, full curve]
CC(CCN1CCN=C1N(C)C)c1ccccc1 (centres undefined) | 0.206 µM [rising, full curve, poor fit] | -9.73% | –
CC(=O)Nc1ccc(NC(=O)c2sc3nc4n(c(=O)c3c2C)CCCCC4)cc1 | 0.0651 µM [falling, full curve, poor fit] | 35% | 0.58 µM [rising, partial curve]
CCOC(=O)N/N=C/c1cccc(Cl)c1Cl | 1.16 µM [rising, full curve] | 26.6% | –
COc1cc(OC)cc(C(=O)Nc2ccccc2N2CCOCC2)c1 | 0.206 µM [rising, full curve, poor fit] | 0.84% | –
CCOc1ccc(NC(=O)Cc2ccc(NC3=NC4CS(=O)(=O)CC4S3)cc2)cc1 (centres undefined) | 2.31 µM [rising, single point] | 30.8% | –
NNC(=O)CN1C(c2ccc(Cl)cc2)=Nc2ccc(Br)cc2C1c1ccccc1 (centres undefined) | – | -3.03% | –
COC(=O)c1ccc(NC(=O)c2cc(Cl)ccc2OC)cc1 | – | 28.6% | 4.61 µM [rising, partial curve]
